According to article doi:10.1101/2021.05.06.443028:
Results are given in words; binding and its absence hold for the method and conditions named. For some of these results: Binding seen in cells or lysates may run through a third protein. Some results given as binding are weak or reduced against the parent protein; the word gives no strength. For some of these results: Where a sequence is shown, tags or fusion partners need not be part of it.

Protein sequences, listed by entry. Tags and fused reporters are not part of them.
UniProt P19793: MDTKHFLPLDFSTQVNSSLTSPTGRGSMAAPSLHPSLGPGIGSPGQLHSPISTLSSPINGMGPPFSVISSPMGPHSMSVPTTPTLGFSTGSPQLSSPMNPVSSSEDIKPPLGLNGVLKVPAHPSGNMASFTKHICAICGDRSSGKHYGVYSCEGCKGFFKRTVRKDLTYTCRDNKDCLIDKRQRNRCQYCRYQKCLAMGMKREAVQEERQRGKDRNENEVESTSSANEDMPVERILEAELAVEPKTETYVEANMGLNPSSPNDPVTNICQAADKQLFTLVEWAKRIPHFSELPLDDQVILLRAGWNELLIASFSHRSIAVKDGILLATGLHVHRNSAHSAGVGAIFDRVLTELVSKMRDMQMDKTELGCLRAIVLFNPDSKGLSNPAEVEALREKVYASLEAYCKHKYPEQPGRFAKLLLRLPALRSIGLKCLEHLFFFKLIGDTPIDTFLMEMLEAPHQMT
UniProt P02340: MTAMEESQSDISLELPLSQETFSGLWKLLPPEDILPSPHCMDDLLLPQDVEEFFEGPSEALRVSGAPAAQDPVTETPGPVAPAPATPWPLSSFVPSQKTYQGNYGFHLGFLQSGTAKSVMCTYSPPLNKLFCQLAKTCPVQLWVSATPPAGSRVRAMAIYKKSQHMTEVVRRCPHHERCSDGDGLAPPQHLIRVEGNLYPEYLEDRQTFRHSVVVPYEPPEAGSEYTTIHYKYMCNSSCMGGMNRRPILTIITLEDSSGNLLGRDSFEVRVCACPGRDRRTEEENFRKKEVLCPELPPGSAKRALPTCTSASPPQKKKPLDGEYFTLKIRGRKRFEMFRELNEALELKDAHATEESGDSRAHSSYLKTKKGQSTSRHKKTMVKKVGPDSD

What was measured:
[1] = molecular target: T1, vitamin D receptor, SH-SY5Y cells (human (endogenous in SH-SY5Y)) (UniProt P11473); assay: co-IP
T1 sequence: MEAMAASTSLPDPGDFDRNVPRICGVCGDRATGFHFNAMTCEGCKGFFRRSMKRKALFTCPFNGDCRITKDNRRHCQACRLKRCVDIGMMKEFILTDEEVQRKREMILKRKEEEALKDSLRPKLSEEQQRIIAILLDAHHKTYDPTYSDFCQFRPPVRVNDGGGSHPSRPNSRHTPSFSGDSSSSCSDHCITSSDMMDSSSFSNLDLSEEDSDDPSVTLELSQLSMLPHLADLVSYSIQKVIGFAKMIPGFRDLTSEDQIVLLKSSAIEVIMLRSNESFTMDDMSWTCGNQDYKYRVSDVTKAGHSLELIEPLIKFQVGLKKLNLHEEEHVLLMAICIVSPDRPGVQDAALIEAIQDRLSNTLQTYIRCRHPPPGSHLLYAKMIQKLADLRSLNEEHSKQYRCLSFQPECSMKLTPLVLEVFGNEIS

[2] = molecular target: T2, vitamin D receptor, human hippocampal tissue (human (endogenous in postmortem hippocampal tissue)) (UniProt P11473); assay: proximity ligation
T2 sequence: T1 sequence

[3] = molecular target: T3, vitamin D receptor, mouse hippocampus (mouse (endogenous in hippocampal tissue)) (UniProt P48281); assay: co-IP
T3 sequence: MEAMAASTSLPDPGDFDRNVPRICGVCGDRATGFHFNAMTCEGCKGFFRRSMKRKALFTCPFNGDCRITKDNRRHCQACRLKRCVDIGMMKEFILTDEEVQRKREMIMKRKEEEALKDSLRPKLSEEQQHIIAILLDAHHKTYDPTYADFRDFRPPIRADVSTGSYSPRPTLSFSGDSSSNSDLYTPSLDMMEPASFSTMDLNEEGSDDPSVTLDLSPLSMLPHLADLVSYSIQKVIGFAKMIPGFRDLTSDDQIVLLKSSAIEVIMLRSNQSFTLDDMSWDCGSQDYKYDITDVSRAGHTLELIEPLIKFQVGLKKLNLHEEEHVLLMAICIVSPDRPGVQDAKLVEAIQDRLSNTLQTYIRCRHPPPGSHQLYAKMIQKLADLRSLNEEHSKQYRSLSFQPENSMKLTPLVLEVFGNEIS

[4] = molecular target: retinoid X receptor alpha (pCMV-BD-RXRα, two-hybrid bait) (UniProt P19793); assay: two-hybrid

“p53, SH-SY5Y cells (from UniProt P04637 1-393)” was tested, and the binding [1] was “binds”.

For “p53, human hippocampal tissue (from UniProt P04637 1-393)”, the binding [2] was “binds”.

“p53, mouse hippocampus (from UniProt P02340 1-390)” was tested, and the binding [3] was “binds”.

B1: vitamin D receptor (pCMV-AD-VDR, two-hybrid prey) (protein, UniProt P11473 1-427)
chain: T1 sequence
B1 was tested, and the binding [4] was “binds”.
